The target of assay [1] is lysozyme. As to the kind of experiment: ELISA; antigen coated at 5 µg/ml, anti-human Fab alkaline phosphatase conjugate, fluorescence Ex/Em 430/535 nm. For orientation: In an ELISA, binding on a coated surface is turned into a signal by an enzyme label.
The target in assay [2] is lysozyme. In words: ELISA, antigen coated at 5 µg/ml, fluorescence read-out (FIG. 12).
The target of assay [3] is lysozyme. As to the kind of experiment: ELISA; antigen coated at 5 µg/ml, anti-murine Fab alkaline phosphatase conjugate, fluorescence Ex/Em 430/535 nm.

Among the data in patent US20120076782A1 (MorphoSys, published 2012) are binding values, retold here.

No constants are given. Whether binding was seen depends on the method and setting.

B1: MOR03077 human IgG1 (antibody, V domains shown)
VH: QVQLVQSGAEVKKPGASVKVSCKASGYTFTSYSINWVRQAPGQGLEWMGYIDPNRGNTNYAQKFQGRVTMTRDTSISTAYMELSSLRSEDTAVYYCAREYIYFIHGMLDFWGQGTLVTVSS
VL: DIVMTQSPLSLPVTPGEPASISCRSSQSLLFIDGNNYLNWYLQKPGQSPQLLIYLGSNRASGVPDRFSGSGSGTDFTLKISRVEAEDVGVYYCQQYSSKSATFGQGTKVEIKR
notes: also called MAb#1
In the case of B1, the binding result with lysozyme [1] is listed as “no binding (tested: 10 µg/ml)”; with lysozyme [2], “no binding (tested: 10 µg/ml antibody)”.

B2: MOR03077 human-mouse chimeric IgG2a (antibody, V domains shown)
VH: QVQLVQSGAEVKKPGASVKVSCKASGYTFTSYSINWVRQAPGQGLEWMGYIDPNRGNTNYAQKFQGRVTMTRDTSISTAYMELSSLRSEDTAVYYCAREYIYFIHGMLDFWGQGTLVTVSS
VL: DIVMTQSPLSLPVTPGEPASISCRSSQSLLFIDGNNYLNWYLQKPGQSPQLLIYLGSNRASGVPDRFSGSGSGTDFTLKISRVEAEDVGVYYCQQYSSKSATFGQGTKVEIKR
Regarding B2, the binding result in the assay with lysozyme [2] was “no binding (tested: 10 µg/ml antibody)”.

B3: MOR03079 human-mouse chimeric IgG2a (antibody, V domains shown)
VH: QVQLVESGGGLVQPGGSLRLSCAASGFTFSNYGMHWVRQAPGKGLEWVSNIRSDGSWTYYADSVKGRFTISRDNSKNTLYLQMNSLRAEDTAVYYCARRYWSKSHASVTDYWGQGTLVTVSS
VL: DIQMTQSPSSLSASVGDRVTITCRASQDISAFLNWYQQKPGKAPKLLIYKVSNLQSGVPSRFSGSGSGTDFTLTISSLQPEDFATYYCQQAYSGSITFGQGTKVEIKR
notes: Chimeric IgG2a: human variable regions of MOR03079 fused to murine Fc gamma 2a constant regions; also called MAb#2 (chimeric: human variable domaine/murine Fc 2a); mu03079
For the molecule B3, the binding result with lysozyme [3] is reported as “no binding (tested: 10 µg/ml)”; with lysozyme [2], “no binding (tested: 10 µg/ml antibody)”.

B4: MOR03079 human IgG1 (antibody, V domains shown)
VH: QVQLVESGGGLVQPGGSLRLSCAASGFTFSNYGMHWVRQAPGKGLEWVSNIRSDGSWTYYADSVKGRFTISRDNSKNTLYLQMNSLRAEDTAVYYCARRYWSKSHASVTDYWGQGTLVTVSS
VL: DIQMTQSPSSLSASVGDRVTITCRASQDISAFLNWYQQKPGKAPKLLIYKVSNLQSGVPSRFSGSGSGTDFTLTISSLQPEDFATYYCQQAYSGSITFGQGTKVEIKR
notes: also called MAb#2
Consider B4, for which the binding result with lysozyme [1] is “no binding (tested: 10 µg/ml)”; in the assay with lysozyme [2], “no binding (tested: 10 µg/ml antibody)”.
